Results are given in words; binding and its absence hold for the method and conditions named. In cells and extracts the contact can be indirect. Some results given as binding are weak or reduced against the parent protein; the word gives no strength.
Target: GST-STAT6 aa 677-847 protein (human)
Assay: GST pull-down, 35S-labeled in vitro translated NCoA-1 fragments

By UniProt entry, the sequences of proteins in these tests, tags left out. Residues count along the entry.
NCoA-1 N-terminal fragment spanning amino acids 1 to 781 (P70365, residues 1-781): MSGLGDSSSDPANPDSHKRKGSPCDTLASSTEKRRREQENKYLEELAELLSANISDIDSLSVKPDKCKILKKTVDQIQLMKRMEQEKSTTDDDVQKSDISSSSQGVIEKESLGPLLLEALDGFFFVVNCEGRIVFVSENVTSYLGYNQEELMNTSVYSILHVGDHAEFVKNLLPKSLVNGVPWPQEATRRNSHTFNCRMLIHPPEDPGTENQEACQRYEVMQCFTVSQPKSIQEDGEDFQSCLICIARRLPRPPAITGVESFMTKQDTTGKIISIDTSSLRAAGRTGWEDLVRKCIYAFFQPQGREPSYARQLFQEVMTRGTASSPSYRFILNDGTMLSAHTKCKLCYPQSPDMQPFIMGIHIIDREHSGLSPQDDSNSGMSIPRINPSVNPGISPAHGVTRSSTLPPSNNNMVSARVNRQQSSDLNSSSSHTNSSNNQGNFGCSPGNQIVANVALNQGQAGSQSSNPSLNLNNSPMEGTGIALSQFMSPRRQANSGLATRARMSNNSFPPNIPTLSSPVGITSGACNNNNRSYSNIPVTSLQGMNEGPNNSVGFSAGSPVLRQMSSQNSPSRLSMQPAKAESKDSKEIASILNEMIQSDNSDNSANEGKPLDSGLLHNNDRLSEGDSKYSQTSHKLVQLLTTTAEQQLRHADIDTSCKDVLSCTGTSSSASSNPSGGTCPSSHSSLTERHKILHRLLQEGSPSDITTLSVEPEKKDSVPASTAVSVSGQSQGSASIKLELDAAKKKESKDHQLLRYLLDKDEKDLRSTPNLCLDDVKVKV
NCoA-1 fragment (1-571) (P70365, residues 1-571): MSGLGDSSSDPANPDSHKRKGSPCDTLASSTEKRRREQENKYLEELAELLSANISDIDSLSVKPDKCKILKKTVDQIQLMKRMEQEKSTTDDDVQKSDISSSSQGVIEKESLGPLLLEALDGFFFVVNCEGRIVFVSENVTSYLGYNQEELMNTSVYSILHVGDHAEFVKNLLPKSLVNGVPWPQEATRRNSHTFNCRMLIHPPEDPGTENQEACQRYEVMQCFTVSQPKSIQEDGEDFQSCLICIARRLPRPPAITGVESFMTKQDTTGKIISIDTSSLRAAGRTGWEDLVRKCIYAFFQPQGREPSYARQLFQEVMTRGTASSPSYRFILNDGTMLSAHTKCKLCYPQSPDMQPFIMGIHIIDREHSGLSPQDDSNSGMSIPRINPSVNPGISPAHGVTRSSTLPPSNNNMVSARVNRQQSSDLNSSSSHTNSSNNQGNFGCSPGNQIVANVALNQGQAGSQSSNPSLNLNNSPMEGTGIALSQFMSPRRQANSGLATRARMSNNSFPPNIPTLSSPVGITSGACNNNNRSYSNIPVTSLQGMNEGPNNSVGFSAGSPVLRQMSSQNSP

Row | Substance | binding
1 | NCoA-1 N-terminal fragment spanning amino acids 1 to 781 (from UniProt P70365 1-781) | binds
2 | NCoA-1 fragment (1-571) (from UniProt P70365 1-571) | binds
3 | NCoA-1 fragment comprising residues 213 to 462 (from UniProt P70365 212-463) | binds
